Results from patent US20050074820A1, “Method for the immunohistological detection of fibrogenesis in histological tissue sections using antiboides against C-terminal procollagen alpha1 (III) propeptide” (priority 2001, published 2005).
For at least one compound, name, drawing or mass did not settle the structure.

Columns and labels:
[1] = tested on: hepatitis B virus (HBV) DNA; assay: HBV DNA concentration before and after treatment; format: in vivo; settings: lamivudine group n = 47, Post (100 mg daily, 52 weeks); listed as lamivudine
[2] = tested on: PIIICP; assay: Quantitative immunostain of PIIICP in liver tissue sections (image analysis); format: in vivo, human; settings: all patients with improved or unchanged fibrosis scores, after lamivudine treatment
Method: Paraffin-embedded tissue sections were stained for α-smooth muscle actin (α-SMA) or PIIICP (FIG. 2). The staining procedure was carried out using the DAKO Envision System (DAKO; Carpinteria, Calif., USA). After inhibiting endogenous peroxidase with Peroxidase Blocking Agent (DAKO) the tissue sections were incubated for 10 minutes at room temperature with a murine monoclonal anti-α-SMA antibody (diluted 1:200 in PBS+1% BSA) or with a murine monoclonal anti-PIIICP antibody (antibody concentration 5 mg/ml; diluted 1:100 in PBS+1% BSA). After the incubation, the sections were washed twice with PBS buffer for 3 minutes, respectively. […]
The stained parenchymal areas on the tissue sections, that are formed by α-SMA or PIIICP-positive hepatic stellate cells, were quantified with the Bioquant TCW 98 image analysis program (Bioquant Image Analysis; www.bioquant.com) with the connected Computer as well as with an Olympus microscope. […]
The immunohistochemical quantification was futhermore correlated with changes of individual components of the histological activity index (HAI) or with entire HAI. For the individual patients in both treatment groups—lamivudine or placebo, respectively—the change of α-SMA- or PIIICP-stained areas was calculated according to: ΔSMA (or ΔPIIICP)=percent area before treatment minus percent treatment after treatment. […]

## Nc1ccn([C@@H]2CS[C@H](CO)O2)c(=O)n1 [Lamivudine, lamivudine]
[1]
  HBV DNA: lower concentrations
[2]
  PIIICP expression after treatment: significantly decreased
